The values below come from publication PMC10654211, “GTPBP8 is required for mitoribosomal biogenesis and mitochondrial translation” (Cellular and Molecular Life Sciences: CMLS, 2023).

Amino acid sequences for entries named in this document (tags omitted).
UniProt Q8N3Z3: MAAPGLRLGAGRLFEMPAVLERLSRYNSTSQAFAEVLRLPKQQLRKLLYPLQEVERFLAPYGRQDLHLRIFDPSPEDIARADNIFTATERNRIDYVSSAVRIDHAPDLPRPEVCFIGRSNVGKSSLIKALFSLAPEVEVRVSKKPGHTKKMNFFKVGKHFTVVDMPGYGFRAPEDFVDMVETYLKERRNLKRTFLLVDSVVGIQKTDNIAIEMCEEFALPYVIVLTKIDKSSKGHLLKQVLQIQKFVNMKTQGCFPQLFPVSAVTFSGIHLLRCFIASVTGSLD

The test deals with MAC-tagged GTPBP8 (human) (UniProt Q8N3Z3). The test can be described thus: proximity labelling; BioID: MAC-tagged GTPBP8 in U2OS cells, 50 uM biotin for 24 h, lysate on Strep-Tactin matrix, mass spectrometry; filtered against MAC-tagged GFP and the CRAPome.

No constants are given. Whether binding was seen depends on the method and setting. Binding seen in cells or lysates may run through a third protein. A yes stands for co-enrichment or nearness to the bait. Other partners may have been found.

B1: YARS2 (enzyme, UniProt Q9Y2Z4 17-477)
chain: TLNLSVLLPLGLRKAHSGAQGLLAAQKARGLFKDFFPETGTKIELPELFDRGTASFPQTIYCGFDPTADSLHVGHLLALLGLFHLQRAGHNVIALVGGATARLGDPSGRTKEREALETERVRANARALRLGLEALAANHQQLFTDGRSWGSFTVLDNSAWYQKQHLVDFLAAVGGHFRMGTLLSRQSVQLRLKSPEGMSLAEFFYQVLQAYDFYYLFQRYGCRVQLGGSDQLGNIMSGYEFINKLTGEDVFGITVPLITSTTGAKLGKSAGNAVWLNRDKTSPFELYQFFVRQPDDSVERYLKLFTFLPLPEIDHIMQLHVKEPERRGPQKRLAAEVTKLVHGREGLDSAKRCTQALYHSSIDALEVMSDQELKELFKEAPFSEFFLDPGTSVLDTCRKANAIPDGPRGYRMITEGGVSINHQQVTNPESVLIVGQHILKNGLSLLKIGKRNFYIIKWLQL
For B1, the binding entry was “binds”.

B2: IARS2 (enzyme, UniProt Q9NSE4 49-1012)
chain: SNHQPNSNSGRYRDTVLLPQTSFPMKLLGRQQPDTELEIQQKCGFSELYSWQRERKVKTEFCLHDGPPYANGDPHVGHALNKILKDIANRFHMMNGSKIHFVPGWDCHGLPIEIKVLSELGREAQNLSAMEIRKKARSFAKAAIEKQKSAFIRWGIMADWNNCYYTFDGKYEAKQLRTFYQMYDKGLVYRSYKPVFWSPSSRTALAEAELEYNPEHVSRSIYVKFPLLKPSPKLASLIDGSSPVSILVWTTQPWTIPANEAVCYMPESKYAVVKCSKSGDLYVLAADKVASVASTLETTFETISTLSGVDLENGTCSHPLIPDKASPLLPANHVTMAKGTGLVHTAPAHGMEDYGVASQHNLPMDCLVDEDGVFTDVAGPELQNKAVLEEGTDVVIKMLQTAKNLLKEEKLVHSYPYDWRTKKPVVIRASKQWFINITDIKTAAKELLKKVKFIPGSALNGMVEMMDRRPYWCISRQRVWGVPIPVFHHKTKDEYLINSQTTEHIVKLVEQHGSDIWWTLPPEQLLPKEVLSEVGGPDALEYVPGQDILDIWFDSGTSWSYVLPGPDQRADLYLEGKDQLGGWFQSSLLTSVAARKRAPYKTVIVHGFTLGEKGEKMSKSLGNVIHPDVVVNGGQDQSKEPPYGADVLRWWVADSNVFTEVAIGPSVLNAARDDISKLRNTLRFLLGNVADFNPETDSIPVNDMYVIDQYMLHLLQDLANKITELYKQYDFGKVVRLLRTFYTRELSNFYFSIIKDRLYCEKENDPKRRSCQTALVEILDVIVRSFAPILPHLAEEVFQHIPYIKEPKSVFRTGWISTSSIWKKPGLEEAVESACAMRDSFLGSIPGKNAAEYKVITVIEPGLLFEIIEMLQSEETSSTSQLNELMMASESTLLAQEPREMTADVIELKGKFLINLEGGDIREESSYKVIVMPTTKEKCPRCWKYTAESSDTLCPRCAEVVSGK
For B2, the binding entry was “binds”.
